In patent publication US7118873B2, “Polynucleotides encoding cellular transporters and methods of use thereof” (The University of Connecticut, priority 2000, dated 2006):
For at least one compound, name, drawing or mass did not settle the structure.

Protein sequences, listed by entry. Tags and fused reporters are not part of them. Residues count along the entry.
UniProt Q9VVT2, 19-590 limits assumed: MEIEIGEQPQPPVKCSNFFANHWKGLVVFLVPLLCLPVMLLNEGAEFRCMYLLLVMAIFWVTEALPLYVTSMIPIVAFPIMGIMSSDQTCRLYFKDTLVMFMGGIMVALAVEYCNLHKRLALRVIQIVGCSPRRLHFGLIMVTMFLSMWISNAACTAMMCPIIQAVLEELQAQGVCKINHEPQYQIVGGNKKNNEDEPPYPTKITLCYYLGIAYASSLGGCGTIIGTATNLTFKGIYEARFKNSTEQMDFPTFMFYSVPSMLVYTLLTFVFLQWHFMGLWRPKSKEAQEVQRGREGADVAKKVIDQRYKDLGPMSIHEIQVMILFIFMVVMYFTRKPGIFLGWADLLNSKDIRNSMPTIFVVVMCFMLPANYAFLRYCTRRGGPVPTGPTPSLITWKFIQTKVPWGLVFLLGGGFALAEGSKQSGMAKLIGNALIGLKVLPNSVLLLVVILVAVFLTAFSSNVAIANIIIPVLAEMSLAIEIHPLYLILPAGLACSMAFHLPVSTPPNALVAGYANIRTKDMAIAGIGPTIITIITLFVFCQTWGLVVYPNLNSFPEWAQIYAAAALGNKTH

Columns and labels:
[1] = molecular target: T1, rabbit renal sodium dicarboxylate cotransporter (Oryctolagus cuniculus, UniProt Q28615); settings: in the presence of sodium; cited from earlier work
T1 sequence (Q28615 1-593): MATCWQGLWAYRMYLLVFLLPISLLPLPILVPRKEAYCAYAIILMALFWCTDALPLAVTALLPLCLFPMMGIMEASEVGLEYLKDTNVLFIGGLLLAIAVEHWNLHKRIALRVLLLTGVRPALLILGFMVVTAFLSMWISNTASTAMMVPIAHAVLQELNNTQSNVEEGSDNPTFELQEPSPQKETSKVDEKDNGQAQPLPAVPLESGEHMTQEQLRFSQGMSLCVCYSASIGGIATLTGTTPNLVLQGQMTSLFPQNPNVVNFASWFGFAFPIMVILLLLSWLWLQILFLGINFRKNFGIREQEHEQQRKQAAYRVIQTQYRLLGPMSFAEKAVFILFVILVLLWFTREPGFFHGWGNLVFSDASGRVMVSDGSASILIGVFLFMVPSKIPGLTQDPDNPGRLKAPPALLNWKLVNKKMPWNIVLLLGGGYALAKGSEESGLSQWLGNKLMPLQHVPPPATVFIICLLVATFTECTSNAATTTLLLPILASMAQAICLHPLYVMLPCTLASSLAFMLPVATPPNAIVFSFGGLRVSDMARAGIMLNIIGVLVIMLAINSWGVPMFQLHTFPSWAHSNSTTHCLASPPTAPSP

INDY = molecular target: T2, INDY (Drosophila melanogaster, UniProt Q9VVT2); assay: Inhibition of [14C] succinate uptake in Xenopus oocytes injected with Indy mRNA; type: cell-based; settings: test inhibitor at 1 mM, approximately 100-fold excess; FIG. 14
T2 construct: expressed in transfected cells; host or cells: Xenopus laevis oocytes (stage V and VI) injected with Indy mRNA
Procedure: Stage V and VI oocytes from Xenopus laevis were dissected and defoliculated. The oocytes were injected with 25–50 ng of Indy mRNA 1 day after isolation. Nutrient uptake was measured 6 to 7 days later. The oocytes were maintained at 18° C. in Barth's solution containing […] gentamycin sulfate, 2.5 mM sodium pyruvate, and 5% heat-inactivated horse serum (Coady et al., Arch. Biochem. Biophys. 283: 130–134, 1990; Pajor and Wright, J. Biol. Chem 26:, 3557–3560, 1992).
Transport measurements were performed as in Pajor, J. Biol. Chem. 270: 5779–5785, 1995. Groups of oocytes were first washed in choline buffer to remove the serum. Transport was initiated by adding 0.4 ml of [^14C] succinate or [^14C] citrate in buffer A. Buffer A comprises 100 mM NaCl, 2 mM KCl, 1 mM MgCl2, and 10 mM HEPES-Tris (pH 7.5). Buffer B is the same as buffer A except the NaCl is replaced by 100 mM choline Cl. […]
Studies of sodium dicarboxylate cotransporters have indicated a broad range of specificity for di- and tri-carboxylic acids and the exclusion of monocarboxylic acids. The transport specificity of Indy was thus determined as the ability of various compounds to inhibit the uptake of [^14C] succinate. […]
The relative affinity of INDY for succinate and citrate was determined by adding a constant amount of [^14C] succinate and increasing concentrations of citrate to oocytes expressing INDY. […]

Row | Structure (SMILES) | effect on succinate transport [1] | inhibition of succinate transport (in words) (INDY)
1 | [Li] [lithium, Lithium] | becomes an inhibitor | 
2 | CC(=O)C(=O)O [pyruvate] |  | little inhibition
